The results in this text go back to PubChem BioAssay AID662 (National Center for Advancing Translational Sciences (NCATS), 2007).

The other results are listed elsewhere or left out. These are further read-outs of the screen, such as a control signal, another cell line or another target. No call is given for them. The list favours compounds with an active or inconclusive main result. Potencies come from curve fits of mixed quality, noted in brackets.

This experiment can be described thus: Cell signaling CRE-BLA (Fsk stim). The note with it: CHO CRE-bla reporter (cAMP response element driving beta-lactamase), forskolin EC10, beta-lactamase ratio; measured here: 460 nm blue channel. The gist of the method: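 Modulation of forskolin signalling: compounds in titration series added with EC10 NKH 477 to CHO cells carrying a CRE-driven beta-lactamase reporter, 3 h, 37C. CCF4 FRET ratio (460/530 nm, ex 405 nm) gives %activity and AC50.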
As for `CC1=C(\C=C/C(C)=C/C=C\C(C)=C\C(=O)O)C(C)(C)CCC1`, the half-maximal activity concentration (AC50) was 0.1 µM [falling, full curve, poor fit]. For the compound `c1ccc(CNc2ccnc(-c3cccnc3)n2)cc1`, the concentration at half-maximal activity (AC50) is 3.16 µM [rising, full curve]. With `c1ccc(-n2cnnc2SCc2cn3ccccc3n2)cc1` the figure was 5.01 µM [falling, single point]; with `CC(=O)N1CCN(CCN=CC2=C(O)CC(c3ccco3)CC2=O)CC1` (stereo not drawn), 0.316 µM [rising, partial curve, poor fit]. On to `CCCCN(C)c1nc(-c2ccco2)c2c(c1C#N)CC(C)(C)OC2`, for which the concentration at half-maximal activity (AC50) was 10 µM [rising, partial curve].

For `COc1cc2cc3c(N)c(C(=O)NCc4ccco4)sc3nc2cc1OC`, the concentration at half-maximal activity (AC50) is 10 µM [rising, single point]. `Brc1cccc(-c2nnc(SCc3nc4ccccc4[nH]3)o2)c1`: the AC50 was 5.01 µM [rising, partial curve]. Regarding `COc1ccc(OC)c(NC(=O)CSc2nc(N)c(-c3ccccc3)c(=O)[nH]2)c1`, the concentration at half-maximal activity (AC50) was 10 µM [rising, partial curve]. For `CN1CCN(c2ncc3nc(CCc4ccccc4)c(=O)n(Cc4ccc(F)cc4)c3n2)CC1`, the AC50 is 10 µM [rising, partial curve].

Consider `COC(=O)c1c(-c2cccc(OC)c2)csc1N`, for which the AC50 is 12.6 µM [rising, partial curve]. For `COc1cc(S(=O)(=O)n2c(C)nc3ccccc32)ccc1F`, the AC50 is 15.8 µM [rising, single point]. As to `CCC(c1nnc(SCc2nc3ccccc3s2)n1Cc1ccccc1)N(C)C` (stereo not drawn), the AC50 was 1.26 µM [falling, partial curve].

Regarding `COc1nc(OC)nc(N2CCC(NC(=O)C(Cc3ccc(C(C)C)cc3)NC(C)=O)CC2)n1` (stereo not drawn), the AC50 is 0.00794 µM [falling, full curve, poor fit].

As for `CCN(CC)S(=O)(=O)c1ccc(Cl)c(C(=O)NC)c1`, the AC50 was 0.794 µM [falling, partial curve, poor fit].

Regarding `CSCCC(NC(N)=O)C(=O)N(C)CC(=O)Nc1ccc(C)cc1` (stereo not drawn), the AC50 is 2.51 µM [falling, partial curve, poor fit]. With `CCN1CCCC1Cn1c(-c2ccccc2)nc2c(N(CCOC)CCOC)nc(C)nc21` (stereo not drawn), the AC50 was 10 µM [rising, partial curve]. With `N#CCCn1c(=O)c(-c2ccccc2)nc2cnc(N3CCNCC3)nc21` the figure was 12.6 µM [rising, partial curve]; with `CCCOc1cccc(C(=O)Nc2cc(NC(=O)c3ccco3)ccc2OC)c1`, 12.6 µM [rising, single point].
